PubChem BioAssay AID504774 | Drosophila RNAi Screening Center | 2011
Test: 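Knock-downs that shift viability of MMS-exposed cells relative to untreated ones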 (primary screen). Cells: Drosophila Kc167 cells. Knock-down reagent: long dsRNA against Drosophila genes, about 0.25 µg dsRNA per well. Time to read-out: about 6 days: 3 days knock-down, then 3 days with or without MMS. Conditions: methyl methanesulphonate 0.004% (w/v) for 3 days after knock-down. Measured: 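ATP-dependent luminescence as a measure of live cells in MMS-exposed wells, quantile normalised within each plate, with replicate values also given as a mean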. Scale: mean viability with MMS and viability with MMS: higher = more surviving cells after MMS.
The screen tested about 23,000 reagents; shown is a random part of those that have a named target and a result. 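Values are quantile-normalised luminescence on an arbitrary scale; higher means more cells surviving MMS.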 A plus sign joins genes that one reagent is predicted to hit. Further read-outs or replicates are left out here.

gene	DRSC id	mean viability with MMS	viability with MMS, replicate 1
Arp1 (Actin-related protein 1)	DRSC14118	3.45e6	3.97e6
CG15890	DRSC19737	3.55e6	4.03e6
CG11656	DRSC14338	3.60e6	4.04e6
Loxl1 (Lysyl oxidase-like 1)	DRSC14303	3.45e6	3.89e6
CG15395	DRSC00409	3.31e6	3.66e6
Oseg5 (Outer segment 5)	DRSC03209	3.56e6	4.05e6
RpS19a (Ribosomal protein S19a)	DRSC20281	2.83e6	3.47e6
CG30001	DRSC05191	3.46e6	3.88e6
EMC3 (ER membrane protein complex subunit 3)	DRSC02989	3.38e6	3.71e6
Syx8 (Syntaxin 8)	DRSC10402	3.62e6	3.67e6
Syx8 (Syntaxin 8)	DRSC22498	3.12e6	3.75e6
Mdh2 (retired record)	DRSC16361	3.49e6	4.00e6
Nle (Notchless)	DRSC00763	3.60e6	4.07e6
CG42331	DRSC14633	1.66e6	3.85e6
CG42331	DRSC16126	3.47e6	3.84e6
Pabp2	DRSC07501	2.83e6	3.57e6
omd (oocyte maintenance defects)	DRSC16507	3.35e6	3.77e6
CG4409	DRSC06869	3.52e6	3.96e6
Lamtor3 (Late endosomal/lysosomal adaptor, MAPK and MTOR activator 3)	DRSC02815	3.51e6	3.91e6
Sam-S (S-adenosylmethionine Synthetase)	DRSC00758	2.94e6	3.20e6
Fst (Frost)	DRSC16491	3.56e6	3.96e6
nrv3 (nervana 3)	DRSC03097	2.08e6	4.23e6
Atg10 + CG12822	DRSC06796	3.48e6	4.04e6
Pldn (Pallidin)	DRSC10137	3.60e6	4.18e6
CG18088	DRSC02654	3.66e6	4.07e6
Cht9 (Chitinase 9)	DRSC04079	3.59e6	3.85e6
Obp93a (Odorant-binding protein 93a)	DRSC15220	3.50e6	3.87e6
put (punt)	DRSC17039	3.50e6	4.05e6

Limited to “mean viability with MMS”, for 4 of the entries above:
Nle (Notchless) [DRSC00763] = 3.60e6
CG42331 [DRSC14633] = 1.66e6
CG42331 [DRSC16126] = 3.47e6
Pabp2 [DRSC07501] = 2.83e6
